From US20210130401A1 (THE REGENTS OF THE UNIVERSITY OF MICHIGAN, priority 2017, published 2021)

Assay: general procedure: hybrid (solid and solution phase) peptide synthesis; 2-chlorotrityl chloride resin (ChemPep, 1 mmol/g); EDCl, HOAt, DIPEA (solution couplings)
Settings: for isolated yield: whole synthesis, over 4 steps, scale of the general procedure 0.1 mmol
[1] = late stage modification step, TFA salt
[2] = late stage modification step, Waters ACQUITY UPLC, reverse-phase SunFire C18 5 um 4.6x150 mm, 0.1% TFA water/CH3CN, TFA salt

Substance	step yield (coupling step, TFA salt) [% yield]	step yield [1] [%]	final purity (method not given) [2] [%]	further results
(9H-fluoren-9-yl)methyl ((4R,7S,10S,13R)-10-ethyl-4-methyl-5,8,11,14-tetraoxo-7-(3-(3-((2,2,4,6,7-pentamethyl-2,3-dihydrobenzofuran-5-yl)sulfonyl)guanidino)propyl)-13-phenyl-6,9,12,15-tetraazaicosa-1,19-dien-4-yl)carbamate	80	–	–	–
(9H-fluoren-9-yl)methyl ((6R,9S,12S,15R)-6-(4-chlorophenyl)-9-ethyl-4,15-dimethyl-5,8,11,14-tetraoxo-12-(3-(3-((2,2,4,6,7-pentamethyl-2,3-dihydrobenzofuran-5-yl)sulfonyl)guanidino)propyl)-4,7,10,13-tetraazaoctadeca-1,17-dien-15-yl)carbamate	44	–	–	–
(9H-fluoren-9-yl)methyl ((6R,9S,12S,15R)-9-ethyl-4,15-dimethyl-5,8,11,14-tetraoxo-12-(3-(3-((2,2,4,6,7-pentamethyl-2,3-dihydrobenzofuran-5-yl)sulfonyl)guanidino)propyl)-6-phenyl-4,7,10,13-tetraazaoctadeca-1,17-dien-15-yl)carbamate	80	–	–	–
(9H-fluoren-9-yl)methyl ((6R,9S,12S,15R)-9-ethyl-6-(4-fluorophenyl)-4,15-dimethyl-5,8,11,14-tetraoxo-12-(3-(3-((2,2,4,6,7-pentamethyl-2,3-dihydrobenzofuran-5-yl)sulfonyl)guanidino)propyl)-4,7,10,13-tetraazaoctadeca-1,17-dien-15-yl)carbamate	45	–	–	–
(9H-fluoren-9-yl)methyl ((6R,9S,12S,15R)-9-ethyl-15-methyl-5,8,11,14-tetraoxo-12-(3-(3-((2,2,4,6,7-pentamethyl-2,3-dihydrobenzofuran-5-yl)sulfonyl)guanidino)propyl)-6-phenyl-4,7,10,13-tetraazaoctadeca-1,17-dien-15-yl)carbamate	60	–	–	–
(9H-fluoren-9-yl)methyl ((6R,9S,12S,15R)-9-ethyl-15-methyl-12-(3-((E)-2-methyl-3-((2,2,4,6,7-pentamethyl-2,3-dihydrobenzofuran-5-yl)sulfonyl)guanidino)propyl)-5,8,11,14-tetraoxo-6-phenyl-4,7,10,13-tetraazaoctadeca-1,17-dien-15-yl)carbamate	85	–	–	–
(R)—N-((6S,9S,12R)-9-ethyl-1-imino-14-methyl-7,10,13-trioxo-1-(2,2,4,6,7-pentamethyl-2,3-dihydrobenzofuran-5-sulfonamido)-12-phenyl-2,8,11,14-tetraazaheptadec-16-en-6-yl)-2-isobutyramido-2-methylpent-4-enamide	45	–	–	–
(R)—N-((6S,9S,12R)-9-ethyl-12-(4-fluorophenyl)-1-imino-14-methyl-7,10,13-trioxo-1-(2,2,4,6,7-pentamethyl-2,3-dihydrobenzofuran-5-sulfonamido)-2,8,11,14-tetraazaheptadec-16-en-6-yl)-2-isobutyramido-2-methylpent-4-enamide	58	–	–	–
(R)—N-((6S,9S,12R)-12-(4-chlorophenyl)-9-ethyl-1-imino-14-methyl-7,10,13-trioxo-1-(2,2,4,6,7-pentamethyl-2,3-dihydrobenzofuran-5-sulfonamido)-2,8,11,14-tetraazaheptadec-16-en-6-yl)-2-isobutyramido-2-methylpent-4-enamide	76	–	–	–
(R)—N-((8S,11S,14R,E)-11-ethyl-9,12,15-trioxo-3-(2,2,4,6,7-pentamethyl-2,3-dihydrobenzofuran-5-sulfonamido)-14-phenyl-2,4,10,13,16-pentaazanonadeca-2,18-dien-8-yl)-2-isobutyramido-2-methylpent-4-enamide	59	–	–	–
(R)—N-((8S,11S,14R,Z)-11-ethyl-3-(methylamino)-9,12,15-trioxo-14-phenyl-2,4,10,13,16-pentaazanonadeca-2,18-dien-8-yl)-2-isobutyramido-2-methylpent-4-enamide	44	–	–	–
N-(3-((5S,8R,13R)-5-ethyl-13-isobutyramido-13-methyl-3,6,9,14-tetraoxo-8-phenyl-1,4,7,10-tetraazacyclotetradecan-2-yl)propyl)acrylamide	–	66	>98	–
N-(4-((2S,5S,8R,13R)-5-ethyl-13-isobutyramido-13-methyl-3,6,9,14-tetraoxo-8-phenyl-1,4,7,10-tetraazacyclotetradecan-2-yl)butyl)acrylamide	–	51	>98	–
N-((3R,6S,9S,12R)-3-(2-chlorophenyl)-6-ethyl-9-(3-guanidinopropyl)-12-methyl-2,5,8,11-tetraoxo-1,4,7,10-tetraazacyclotetradecan-12-yl)isobutyramide	–	–	–	isolated yield (CF3COOH salt): 26%
N-((3R,6S,9S,12R)-3-(4-chlorophenyl)-6-ethyl-9-(3-guanidinopropyl)-1,12-dimethyl-2,5,8,11-tetraoxo-1,4,7,10-tetraazacyclohexadecan-12-yl)isobutyramide	–	–	–	cyclisation yield (cyclisation step, over 3 steps from 36g, TFA salt): 11% yield over 3 steps
N-((3R,6S,9S,12R)-3-(4-chlorophenyl)-6-ethyl-9-(3-guanidinopropyl)-12-methyl-2,5,8,11-tetraoxo-1,4,7,10-tetraazacyclotetradecan-12-yl)isobutyramide	–	–	–	isolated yield (CF3COOH salt): 20%
N-((3R,6S,9S,12R)-3-(cyclohexylmethyl)-6-ethyl-9-(3-(3-ethylguanidino)propyl)-12-methyl-2,5,8,11-tetraoxo-1,4,7,10-tetraazacyclotetradecan-12-yl)isobutyramide	–	92	>98	–
N-((3R,6S,9S,12R)-3-(cyclohexylmethyl)-6-ethyl-9-(3-(hydrazinecarboximidamido)propyl)-12-methyl-2,5,8,11-tetraoxo-1,4,7,10-tetraazacyclotetradecan-12-yl)isobutyramide	–	89	>98	–
N-((3R,6S,9S,12R)-3-(cyclohexylmethyl)-6-ethyl-9-(3-guanidinopropyl)-12-methyl-2,5,8,11-tetraoxo-1,4,7,10-tetraazacyclotetradecan-12-yl)isobutyramide	–	–	–	isolated yield (CF3COOH salt): 34%
N-((3R,6S,9S,12R)-3-(cyclohexylmethyl)-6-ethyl-12-methyl-2,5,8,11-tetraoxo-9-(3-(3-propylguanidino)propyl)-1,4,7,10-tetraazacyclotetradecan-12-yl)isobutyramide	–	80	>98	–
N-((3R,6S,9S,12R)-3-(cyclohexylmethyl)-6-ethyl-12-methyl-2,5,8,11-tetraoxo-9-(3-((1,4,5,6-tetrahydropyrimidin-2-yl)amino)propyl)-1,4,7,10-tetraazacyclotetradecan-12-yl)isobutyramide	–	50	>98	–
N-((3R,6S,9S,12R)-3-(cyclohexylmethyl)-6-ethyl-12-methyl-9-(3-(3-nitroguanidino)propyl)-2,5,8,11-tetraoxo-1,4,7,10-tetraazacyclotetradecan-12-yl)isobutyramide	–	93	>98	–
N-((3R,6S,9S,12R)-3-(cyclohexylmethyl)-6-ethyl-12-methyl-9-(3-(4-methylpiperazin-1-yl)propyl)-2,5,8,11-tetraoxo-1,4,7,10-tetraazacyclotetradecan-12-yl)isobutyramide	–	73	>98	–
N-((3R,6S,9S,12R)-3-(cyclohexylmethyl)-6-ethyl-12-methyl-9-(3-((5-methyl-1,4,5,6-tetrahydropyrimidin-2-yl)amino)propyl)-2,5,8,11-tetraoxo-1,4,7,10-tetraazacyclotetradecan-12-yl)isobutyramide	–	87	>98	–
N-((3R,6S,9S,12R)-3-(cyclohexylmethyl)-9-(3-(3,3-dimethylguanidino)propyl)-6-ethyl-12-methyl-2,5,8,11-tetraoxo-1,4,7,10-tetraazacyclotetradecan-12-yl)isobutyramide	–	–	–	purity (crude or final not stated) (Waters ACQUITY UPLC, reverse-phase SunFire C18 5 um 4.6x150 mm, 0.1% TFA water/CH3CN, CF3COOH salt): >98%
N-((3R,6S,9S,12R)-3-(cyclohexylmethyl)-9-(3-((4,5-dihydro-1H-imidazol-2-yl)amino)propyl)-6-ethyl-12-methyl-2,5,8,11-tetraoxo-1,4,7,10-tetraazacyclotetradecan-12-yl)isobutyramide	–	76	>98	–
N-((3R,6S,9S,12R)-3-(cyclohexylmethyl)-9-(3-((5,5-difluoro-1,4,5,6-tetrahydropyrimidin-2-yl)amino)propyl)-6-ethyl-12-methyl-2,5,8,11-tetraoxo-1,4,7,10-tetraazacyclotetradecan-12-yl)isobutyramide	–	44	>98	–
N-((3R,6S,9S,12R)-3-(cyclohexylmethyl)-9-(3-((5,5-dimethyl-1,4,5,6-tetrahydropyrimidin-2-yl)amino)propyl)-6-ethyl-12-methyl-2,5,8,11-tetraoxo-1,4,7,10-tetraazacyclotetradecan-12-yl)isobutyramide	–	93	>98	–
N-((3R,6S,9S,12R)-3-(cyclohexylmethyl)-9-(3-((E)-2,3-dimethylguanidino)propyl)-6-ethyl-12-methyl-2,5,8,11-tetraoxo-1,4,7,10-tetraazacyclotetradecan-12-yl)isobutyramide	–	30	>98	–
N-((3R,6S,9S,12R)-3-benzyl-6-ethyl-9-(3-guanidinopropyl)-12-methyl-2,5,8,11-tetraoxo-1,4,7,10-tetraazacyclotetradecan-12-yl)isobutyramide	–	–	–	isolated yield (CF3COOH salt): 56%
